Data from patent US20090226421A1.
Results are given in words; binding and its absence hold for the method and conditions named. Some binding calls cover weakened binding; strength is not graded here.

Columns and labels:
[1] = molecular target: T1, Bet v 1 (birch) (UniProt P15494); assay: crosslinking radio immuno assay, birch pollen Sepharose and 125I-labelled Bet v 1
T1 sequence (125I-labelled (chloramine-T method) where used as the radiolabelled antigen, looked up): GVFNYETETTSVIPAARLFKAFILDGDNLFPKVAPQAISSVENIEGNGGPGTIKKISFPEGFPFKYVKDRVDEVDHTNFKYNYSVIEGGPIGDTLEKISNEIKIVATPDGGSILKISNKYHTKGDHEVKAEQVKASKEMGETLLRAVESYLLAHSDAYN

[2] = molecular target: T1, Bet v 1 (birch); assay: gel filtration fractions tested for binding of 125I-labelled Bet v 1 (Protein G Sepharose)
[3] = molecular target: T1, Bet v 1 (birch); assay: summary of the results (radio immuno assay of Example 49)
[4] = molecular target: T1, Bet v 1 (birch); assay: radio immuno assay, antibody on Protein G Sepharose, 125I-labelled Bet v 1

Measured: binding

B1: Betv1-HG (antibody)
heavy: EVQLQQSGAELVKPGASVKLSCTASGFNIKDTYIHWVKQRPEQGLEWVGRIDPATGNTRYDPKFQGKATITADTSSNTAYLQLSSLTSEDTAVYYCASFRPGYALDYWGQGTSVTVSSASTKGPSVFPLAPCSRSTSESTAALGCLVKDYFPEPVTVSWNSGALTSGVHTFPAVLQSSGLYSLSSVVTVPSSSLGTKTYTCNVDHKPSNTKVDKRVAPEFLGGPSVFLFPPKPKDTLMISRTPEVTCVVVDVSQEDPEVQFNWYVDGVEVHNAKTKPREEQFNSTYRVVSVLTVLHQDWLNGKEYKCKVSNKGLPSSIEKTISKAKGQPREPQVYTLPPSQEEMTKNQVSLTCLVKGFYPSDIAVEWESNGQPENNYKTTPPVLDSDGSFFLYSRLTVDKSRWQEGNVFSCSVMHEALHNHYTQKSLSLSLGK
light: DIVMTQSHKFMSTSVGDRVSFTCKASQDVFTAVAWYQQKPGQSPKLLIYWASTRRTGVPDRFTGSGSGTDYTLTISSVQAEDLALYYCQQHFSTPPTFGGGTKLEIKRTVAAPSVFIFPPSDEQLKSGTASVVCLLNNFYPREAKVQWKVDNALQSGNSQESVTEQDSKDSTYSLSSTLTLSKADYEKHKVYACEVTHQGLSSPVTKSFNRGEC
binds: all assays above

B2: Betv1-IgG1 (antibody, not shown: a dimerising Fc or GST)
heavy: EVQLQQSGAELVKPGASVKLSCTASGFNIKDTYIHWVKQRPEQGLEWVGRIDPATGNTRYDPKFQGKATITADTSSNTAYLQLSSLTSEDTAVYYCASFRPGYALDYWGQGTSVTVSS
light: B1 light
binds: [1] | [4]
